Some entries share one result that the patent states for a list of compounds.
Format: in vivo
Settings: toxicology research
Procedure: Mice weighed 18-22 grams were randomly divided into six groups with 10 mice each group. Each individual group of mice were treated (orally) with: physiological saline, DMSO 2.5 ml/kg, and icariside I: 2000 mg/kg, 1000 mg/kg, 500 mg/kg, 100 mg/kg respectively. […] Therefore, the acute toxicity of icariside I is very low which is safe for use in preparation of pharmaceuticals, health products, food, and cosmetic and skin care products for prevention and treatment of immunity-related diseases.

## COc1ccc(-c2oc3c(CC=C(C)C)c(O[C@@H]4O[C@H](CO)[C@@H](O)[C@H](O)[C@H]4O)cc(O)c3c(=O)c2O)cc1 [icariside I]
  DC50 (toxicity and side effects): > 2 g/kg body weight
